Sequences and labels used below:
B1: sugar transport protein 1 (STP1) (protein, UniProt P23586 1-522)
chain: MPAGGFVVGDGQKAYPGKLTPFVLFTCVVAAMGGLIFGYDIGISGGVTSMPSFLKRFFPSVYRKQQEDASTNQYCQYDSPTLTMFTSSLYLAALISSLVASTVTRKFGRRLSMLFGGILFCAGALINGFAKHVWMLIVGRILLGFGIGFANQAVPLYLSEMAPYKYRGALNIGFQLSITIGILVAEVLNYFFAKIKGGWGWRLSLGGAVVPALIITIGSLVLPDTPNSMIERGQHEEAKTKLRRIRGVDDVSQEFDDLVAASKESQSIEHPWRNLLRRKYRPHLTMAVMIPFFQQLTGINVIMFYAPVLFNTIGFTTDASLMSAVVTGSVNVAATLVSIYGVDRWGRRFLFLEGGTQMLICQAVVAACIGAKFGVDGTPGELPKWYAIVVVTFICIYVAGFAWSWGPLGWLVPSEIFPLEIRSAAQSITVSVNMIFTFIIAQIFLTMLCHLKFGLFLVFAFFVVVMSIFVYIFLPETKGIPIEEMGQVWRSHWYWSRFVEDGEYGNALEMGKNSNQAGTKHV
B2: somatic embryogenesis receptor kinase 4 (SERK4) (receptor, UniProt Q9SKG5 34-620)
chain: DALTQLKNSLSSGDPANNVLQSWDATLVTPCTWFHVTCNPENKVTRVDLGNAKLSGKLVPELGQLLNLQYLELYSNNITGEIPEELGDLVELVSLDLYANSISGPIPSSLGKLGKLRFLRLNNNSLSGEIPMTLTSVQLQVLDISNNRLSGDIPVNGSFSLFTPISFANNSLTDLPEPPPTSTSPTPPPPSGGQMTAAIAGGVAAGAALLFAVPAIAFAWWLRRKPQDHFFDVPAEEDPEVHLGQLKRFTLRELLVATDNFSNKNVLGRGGFGKVYKGRLADGNLVAVKRLKEERTKGGELQFQTEVEMISMAVHRNLLRLRGFCMTPTERLLVYPYMANGSVASCLRERPEGNPALDWPKRKHIALGSARGLAYLHDHCDQKIIHRDVKAANILLDEEFEAVVGDFGLAKLMNYNDSHVTTAVRGTIGHIAPEYLSTGKSSEKTDVFGYGVMLLELITGQKAFDLARLANDDDIMLLDWVKEVLKEKKLESLVDAELEGKYVETEVEQLIQMALLCTQSSAMERPKMSEVVRMLEGDGLAERWEEWQKEEMPIHDFNYQAYPHAGTDWLIPYSNSLIENDYPSGPR
B3: CPK-related kinase 1 (CRK1) (enzyme, UniProt O80673 1-576)
chain: MGICHGKPVEQQSKSLPVSGETNEAPTNSQPPAKSSGFPFYSPSPVPSLFKSSPSVSSSVSSTPLRIFKRPFPPPSPAKHIRAFLARRYGSVKPNEVSIPEGKECEIGLDKSFGFSKQFASHYEIDGEVGRGHFGYTCSAKGKKGSLKGQEVAVKVIPKSKMTTAIAIEDVSREVKMLRALTGHKNLVQFYDAFEDDENVYIVMELCKGGELLDKILQRGGKYSEDDAKKVMVQILSVVAYCHLQGVVHRDLKPENFLFSTKDETSPLKAIDFGLSDYVKPDERLNDIVGSAYYVAPEVLHRTYGTEADMWSIGVIAYILLCGSRPFWARTESGIFRAVLKAEPNFEEAPWPSLSPEAVDFVKRLLNKDYRKRLTAAQALCHPWLVGSHELKIPSDMIIYKLVKVYIMSTSLRKSALAALAKTLTVPQLAYLREQFTLLGPSKNGYISMQNYKTAILKSSTDAMKDSRVFDFVHMISCLQYKKLDFEEFCASALSVYQLEAMETWEQHARRAYELFEKDGNRPIMIEELASELGLGPSVPVHVVLQDWIRHSDGKLSFLGFVRLLHGVSSRTLQKA

Our source for the binding values is PMC11989534.

These are yes or no findings as the source states them, for the method shown. In cells and extracts the contact can be indirect. A yes stands for co-enrichment or nearness to the bait. Other partners may have been found.

The target of the assay is CPK-related kinase 5 fused with a YFP tag (CRK5-YFP) (Arabidopsis thaliana). Nature of the assay: affinity purification with mass spectrometry; IP-MS: lysate of 10-d-old 35S::CRK5-YFP transgenic seedlings (10 mM HEPES pH 7.5, 100 mM NaCl, 1 mM EDTA, 10% glycerol, 1% TritonX-100) incubated with anti-GFP beads 3 h at 4 °C, washed five times; Orbitrap Fusion Lumos; 35S::YFP in Col-0 as control.
Consider B1, for which the binding entry is “binds”.
Turning to B2, the binding result was “binds”.
For the molecule B3, the binding entry was “binds”.
